No constants are given. Whether binding was seen depends on the method and setting. In cells and extracts the contact can be indirect. Binding can be weak; no strength is given. Where a sequence is shown, tags or fusion partners need not be part of it.
Target: T1, His-tagged MinJ (B. subtilis) (UniProt O34375)
T1 sequence: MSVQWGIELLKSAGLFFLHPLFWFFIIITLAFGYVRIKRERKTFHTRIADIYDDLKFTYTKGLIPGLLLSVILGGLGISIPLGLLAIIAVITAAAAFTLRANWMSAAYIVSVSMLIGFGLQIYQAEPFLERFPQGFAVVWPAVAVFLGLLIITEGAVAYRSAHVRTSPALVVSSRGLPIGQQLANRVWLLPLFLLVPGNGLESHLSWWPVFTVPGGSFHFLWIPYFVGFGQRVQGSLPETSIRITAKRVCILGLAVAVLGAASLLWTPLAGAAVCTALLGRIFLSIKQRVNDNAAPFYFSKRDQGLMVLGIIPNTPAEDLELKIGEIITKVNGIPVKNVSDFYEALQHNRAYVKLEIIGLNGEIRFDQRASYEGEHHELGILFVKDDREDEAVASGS
Assay: pull-down; B. subtilis IB1659 extract (1% Triton X100) on Ni2+ Sepharose resin, 1 h at 4°C; 20 mM Tris-HCl pH 8, 150 mM NaCl, wash with 150 mM imidazole; MinJ-His held, CFP-RodZ detected with anti-GFP

binding: binds
Substance: CFP-RodZ (B. subtilis)

Source: article PMC5778138, “Interaction of the Morphogenic Protein RodZ with the Bacillus subtilis Min System” (Frontiers in Microbiology, 2017)
